Data set [1] is described as follows: Fmoc solid-phase peptide synthesis; H-Leu-Wang resin; TBTU/HOBt with diisopropylethylamine; DIC/HOBt for Fmoc-Gly-Gly-OH. Conditions: whole synthesis, scale 250 g resin.
Data set [2] is described as follows: Fmoc solid-phase peptide synthesis; H-Leu-2-Cl-Trt resin; TBTU/HOBt with diisopropylethylamine; DIC/HOBt for Fmoc-Gly-Gly-OH. Conditions: whole synthesis.
Data set [3] in a line: general procedure: Fmoc solid-phase peptide synthesis; H-Leu-Wang resin; TBTU/HOBt with diisopropylethylamine; DIC/HOBt for Fmoc-Gly-Gly-OH. Conditions: whole synthesis.
Data set [4] in a line: general procedure: Fmoc solid-phase peptide synthesis; H-Leu-2-Cl-Trt resin; TBTU/HOBt with diisopropylethylamine; DIC/HOBt for Fmoc-Gly-Gly-OH. Conditions: whole synthesis.

Bounds are passed on as bounds.

As for Bivalirudin, the crude mass turned out to be 470 g in data set [1], 4.9 kg in data set [2] (scale 3.0 Kg resin) and 7.6 kg in data set [2] (scale 4.5 Kg resin). For the same substance, the “final HPLC purity” value was more than 99.0% in data set [3] (HPLC, run 2); more than 99.0% in data set [4] (run 1); more than 97.5% in data set [4] (run 3). Also, the results for the isolated mass in data set [3] (scale 250 g resin), in data set [4] (scale 3.0 Kg resin) and in data set [4] (scale 4.5 Kg resin) were 92 g, 960 g and 1.7 kg, respectively.

The record behind these values is patent US20110160431 (published 2011).
